Assay results reported in article PMC5645412, “AUNIP/C1orf135 directs DNA double-strand breaks towards the homologous recombination repair pathway” (Nature Communications, 2017).
A weaker result is weaker than the reference pair of the same experiment. Protein sequences can lack the tags named with them. For some of these results: Construct, isoform or probe ends are uncertain for at least one entry.

Experiments:
MBP-AUNIP = molecular target: T1, MBP-AUNIP (UniProt Q9H7T9); assay: EMSA; conditions: 10 mM MgCl2, 20 nM biotin-DNA, 0-200 nM protein, 1x LightShift binding buffer with 10 mM MgCl2, 2.5% glycerol, 0.05% NP-40, 20 min, room temperature, 10% native PAGE, recombinant protein
T1 sequence (looked up, limits assumed): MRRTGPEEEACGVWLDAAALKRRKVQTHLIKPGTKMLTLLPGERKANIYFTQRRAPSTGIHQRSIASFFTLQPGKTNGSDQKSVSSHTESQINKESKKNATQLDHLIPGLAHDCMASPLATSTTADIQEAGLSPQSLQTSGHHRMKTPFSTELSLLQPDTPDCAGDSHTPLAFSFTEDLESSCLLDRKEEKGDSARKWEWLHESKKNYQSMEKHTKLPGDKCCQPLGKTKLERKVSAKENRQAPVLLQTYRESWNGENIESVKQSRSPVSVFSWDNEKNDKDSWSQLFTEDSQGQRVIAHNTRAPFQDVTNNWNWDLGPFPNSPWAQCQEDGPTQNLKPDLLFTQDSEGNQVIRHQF

MBP-AUNIP 21-70 = molecular target: T2, MBP-AUNIP 21-70 (UniProt Q9H7T9); assay: EMSA; conditions: 10 mM MgCl2, up to 200 nM protein; 20 nM biotin-DNA, 0-200 nM protein, 1x LightShift binding buffer with 10 mM MgCl2, 2.5% glycerol, 0.05% NP-40, 20 min, room temperature; 10% native PAGE; recombinant protein; residues 21-70; label: 5'-biotin on oligo 1
T2 sequence (looked up): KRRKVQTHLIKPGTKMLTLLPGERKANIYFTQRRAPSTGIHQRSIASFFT

| Sequence | binding result (MBP-AUNIP; label: 5'-biotin on oligo 1) | further results |
| --- | --- | --- |
| GACGCTGCCGAATTCTACCAGTGCCTTGCTAGGACATCTTTGCCCACCTGCAGGTTCAC / TAGCAAGGCACTGGTAGAATTCGGCAGCGTC [3' tail DNA] | binds more weakly | – |
| GACGCTGCCGAATTCTACCAGTGCCTTGCTAGGACATCTTTGCCCACCTGCAGGTTCAC [ssDNA (oligo 1 presumed)] | – | binding result (MBP-AUNIP; label: 5'-biotin, single-stranded DNA): binds more weakly |
| GACGCTGCCGAATTCTACCAGTGCCTTGCTAGGACATCTTTGCCCACCTGCAGGTTCAC (double strand) [blunt-ended dsDNA] | binds more weakly | – |
| GACGCTGCCGAATTCTACCAGTGCCTTGCTAGGACATCTTTGCCCACCTGCAGGTTCAC / ATAGTCGGATCCTCTAGACAGCTCCATGTAGCAAGGCACTGGTAGAATTCGGCAGCGTC [splayed arm] | – | binding result (MBP-AUNIP 21-70): binds more weakly |
